# Source: PubChem BioAssay AID2551 (National Center for Advancing Translational Sciences (NCATS), 2010)
# Amino acid sequences for entries named in this document (tags omitted). A change or cut given only in a name is not applied to a line headed by its entry.
# UniProt P51450: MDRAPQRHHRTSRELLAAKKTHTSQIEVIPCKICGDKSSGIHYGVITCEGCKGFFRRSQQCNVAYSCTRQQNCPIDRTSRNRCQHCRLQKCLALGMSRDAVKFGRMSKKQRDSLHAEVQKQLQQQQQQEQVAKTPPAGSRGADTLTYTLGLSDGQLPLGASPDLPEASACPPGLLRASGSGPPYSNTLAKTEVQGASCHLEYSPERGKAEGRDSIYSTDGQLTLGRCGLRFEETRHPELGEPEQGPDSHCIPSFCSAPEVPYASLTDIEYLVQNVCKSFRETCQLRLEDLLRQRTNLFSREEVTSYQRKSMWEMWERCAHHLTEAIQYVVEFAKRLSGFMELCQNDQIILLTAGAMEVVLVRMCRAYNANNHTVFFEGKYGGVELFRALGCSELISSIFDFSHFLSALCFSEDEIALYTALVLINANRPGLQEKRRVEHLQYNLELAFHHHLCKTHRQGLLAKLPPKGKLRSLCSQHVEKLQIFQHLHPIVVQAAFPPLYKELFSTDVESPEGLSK
# The campaign covered roughly 310,000 compounds. About 17,000 (5.5%) were called active. The inconclusive results got no clear call from the source; some entries with a clear call stand among them for comparison. Calls follow the shape of the dose curve; as a rule, active = well fitted inhibition curve with a large enough effect; inconclusive = small, poorly fitted or top-dose-only effect, or effect the other way; inactive = no such curve, though single readings can be large or run the other way. Potencies of inconclusive entries are doubtful fits and often do not repeat.
# Biological target: Nuclear receptor ROR-gamma (Mus musculus) (UniProt P51450)
# Assay: qHTS for inhibitors of ROR gamma transcriptional activity; also: nearly all actives have a fitted effect of over 60% in size
# Conditions: Drosophila S2 Gal4-RORgamma UAS-luciferase reporter, 20 h; activity change, negative = inhibition: at 53.6 µM (top of the series)
# Outline: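 Compounds are pin-transferred onto Drosophila Schneider cells expressing a copper-inducible Gal4–ROR gamma transactivation domain fusion. After 1 hr, copper sulfate is added to 700 uM final; luciferase is read 20 hr later.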
# % is scaled to controls: 0 for no effect and ±100 for the full control effect; potency is read from the fitted curve at half-maximal effect.
Compound,Potency,"activity change, negative = inhibition"
CC(C)S(=O)(=O)C1=NSC2=NC(=O)/C(=C\c3ccc(-c4ccccc4)o3)C(=N)N21,"inconclusive: 35.5 µM [activator, single point]",–
C=CCSc1nsc(NC(=O)Nc2ccc(F)cc2)n1,"inconclusive: 31.6 µM [inhibitor, single point]",–
CC(C)C[C@H](NC(=O)c1nc[nH]c1C(=O)NCc1ccc(CNC(=O)OC(C)(C)C)cc1)C(=O)OCc1ccccc1,active: 11.2 µM,–
COc1ccc(-c2nc(NC(=O)Cn3ccc(C(F)(F)F)n3)sc2C)cc1,"inconclusive: 11.2 µM [activator, partial curve]",–
Cn1cc(CCCC(=O)NCc2ccc(F)cc2)c2ccccc21,–,inactive: -1.51%
COc1cccc(NC(=O)CSc2nnc(Cc3cccn3C)n2-c2ccc(F)cc2)c1,"inconclusive: 39.8 µM [activator, partial curve, poor fit]",–
Cc1ccc(S(=O)(=O)c2ncccc2[N+](=O)[O-])cc1,active: 5.62 µM,–
CCc1ccc(NC(=O)C2CCN(S(=O)(=O)c3ccc4c(c3)CC(C)N4C(C)=O)CC2)cc1 (centres undefined),–,inactive: -29.9%
Cc1ccc(NS(=O)(=O)c2ccc3c(c2)C(=O)c2ccccc2C3=O)c(C)c1,"inconclusive: 17.8 µM [inhibitor, single point]",–
Cc1cc([N+](=O)[O-])nn1CCCC(=O)Nc1c(C)n(C)n(-c2ccccc2)c1=O,"inconclusive: 14.1 µM [inhibitor, partial curve]",–
COc1ccc(OC2C=CC(C#Cc3ccc(Br)cc3)OC2CO)c(C(C)(C)C)c1 (centres undefined),–,inactive: 4.29% [at 10 µM]
O=C(Nc1ccc(Cl)cc1C(=O)NCCN1CCOCC1)c1ccc(Cl)cc1Cl,–,inactive: -29.5%
COc1cc(CNn2c(C)n[nH]c2=S)cc(Cl)c1OCc1ccc(F)cc1,"inconclusive: 25.1 µM [inhibitor, single point]",–
CCN1CCN(Cc2ccc(NC(=O)c3cc(NC(=O)c4cc5cccc(OC)c5o4)cc(OC)c3)cc2C(F)(F)F)CC1,"inconclusive: 20 µM [inhibitor, single point]",–
CNC(=O)c1ccccc1NC(=O)C1CC(=O)N(C(C)C)C1 (centres undefined),"inconclusive: 0.0045 µM [activator, full curve, poor fit]",–
COc1cccc(-c2n[nH]c(=S)n2Cc2ccco2)c1OC,"inconclusive: 31.6 µM [inhibitor, single point]",–
CSCCC(NS(=O)(=O)/C=C/c1ccccc1)C(=O)N1CCC(C)CC1 (centres undefined),"inconclusive: 1.26 µM [inhibitor, single point]",–
COc1cc2c3cc1Oc1c(OC)c(OC)cc4c1[C@@H](Cc1ccc(O)c(c1)Oc1ccc(cc1)C[C@@H]3N(C)CC2)N(C)CC4,–,inactive: -0.259%
c1cncc(-c2nn3c(Cn4cnc5ccccc54)nnc3s2)c1,"inconclusive: 35.5 µM [activator, single point]",–
Cc1nn(-c2ccccc2)c(Cl)c1/C=N/NC(=O)c1nn(C)cc1[N+](=O)[O-],–,inactive: 21.6%
CCCSc1nnc(Cn2c(=O)sc3ccccc32)n1-c1ccccc1,–,inactive: 20%
Cc1ccc(-n2ncc(C(=O)NCC3CCN(C4CCCC4)C3)c2C2CCN(C(=O)OC(C)(C)C)CC2)cc1C (centres undefined),–,inactive: -0.607%
Cc1nc(NC(=S)NC(=O)c2ccccc2)sc1C,active: 1.26 µM,–
O=C(CCN1C(=O)/C(=C/c2cccs2)SC1=S)Nc1ccc(C(=O)O)c(O)c1,–,inactive: -11.1%
CC(C)=C1C2CCC1C1C(=O)N(c3nc(-c4ccccc4)c(C)s3)C(=O)C21 (centres undefined),–,inactive: 13.2%

Compound,Potency,"activity change, negative = inhibition"
CC(C)c1ccc(NC(=S)NC2CCN(Cc3ccccc3)CC2)cc1,active: 15.8 µM,–
Cc1cc(OC(C)C(=O)NCc2cccnc2)c2c(C)c(Cc3ccccc3)c(=O)oc2c1 (centres undefined),"inconclusive: 35.5 µM [activator, single point]",–
C=CCn1c(C(C)NC(=O)c2cccc(C)c2)n[nH]c1=S (centres undefined),"inconclusive: 22.4 µM [inhibitor, single point]",–
COc1ccc(-c2nn(-c3ccccc3)cc2C(=O)Nc2ccc(C(=O)O)cc2)cc1,"inconclusive: 11.2 µM [activator, partial curve]",–
O=C(COc1ccc(Cl)cc1)NNC(=O)C(=O)NC1CCCCC1,–,inactive: -11%
Cc1cccc(C)c1NC(=O)CSc1nnc(-c2ccccc2)n1Cc1ccc2c(c1)OCO2,–,inactive: 2.3%
CC1(C)CC(=O)c2sc(NC(=O)C3COc4ccccc4O3)nc2C1 (centres undefined),"inconclusive: 17.8 µM [activator, single point]",–
CCC1Oc2ccccc2N(CC(=O)N2CCOCC2)C1=O (centres undefined),–,inactive: -8.59%
O=C(CCCN1C(=O)c2ccccc2C1=O)N1CCc2ccccc2C1,–,inactive: -7.02%
CCCCn1c(-c2csc(C(C)C)c2)n[nH]c1=S,active: 3.98 µM,–
CC(C(=O)OCC(=O)c1ccc([N+](=O)[O-])cc1)N1C(=O)C2C3CCC(C3)C2C1=O (centres undefined),"inconclusive: 35.5 µM [inhibitor, single point]",–
Cc1ccc(C)c(N2CCN(C(=O)c3ccc(NS(=O)(=O)c4c(C)noc4C)cc3)CC2)c1,"inconclusive: 15.8 µM [activator, partial curve]",–
O=S(=O)(NCc1ccccn1)c1ccc(Br)s1,active: 8.91 µM,–
CC1(C)CC(NC(=O)c2coc(=O)c(Br)c2)CC(C)(C)N1,"inconclusive: 1.26 µM [inhibitor, single point]",–
O=S(=O)(Nc1ccc2c(c1)nc1n2CCN(Cc2ccccc2)C1)c1ccc(Cl)cc1,"inconclusive: 11.2 µM [activator, partial curve]",–
CCOCCCn1c(=S)[nH]c2cc3c(cc2c1=O)OCO3,active: 2.51 µM,–
CC(=O)Nc1nc2ccc(C(=O)NC3CCCCC3)cc2s1,"inconclusive: 35.5 µM [activator, single point]",–
CCN(CC)CCNC(=O)c1cc2c(-c3ccc(Cl)cc3)nn(C)c2s1,"inconclusive: 11.2 µM [inhibitor, single point]",–
O=C1CCCN1CCC(=O)N1CCCC(Nc2ccc(F)c(F)c2)C1 (centres undefined),–,inactive: 27.8%
CCOc1ccc2nc(N3C(=O)/C(=C/c4ccc(Cl)cc4)NC3=S)sc2c1,active: 1.12 µM,–
CCOC(=O)c1sc(NC(=O)C2CC2)nc1C,"inconclusive: 12.6 µM [activator, single point]",–
CCN1CCN(C(=O)c2c(-c3c(Cl)cccc3Cl)noc2C)CC1,–,inactive: 0.0976%
COc1cc(OC)cc(C(=O)Nn2cc(C(=O)Nc3ccccc3F)c3ccccc3c2=O)c1,–,inactive: 6.94%
O=C(NNc1cccc(Cl)n1)Nc1ccc(Cl)cc1,–,inactive: 26.6%
CCc1ccnc(NS(=O)(=O)c2ccc3c(c2)CCO3)c1,–,inactive: 1.69%

# Fetched by compound from the list above (4):
Compound,Potency,"activity change, negative = inhibition"
CCCCn1c(-c2csc(C(C)C)c2)n[nH]c1=S,active: 3.98 µM,–
O=C1CCCN1CCC(=O)N1CCCC(Nc2ccc(F)c(F)c2)C1 (centres undefined),–,inactive: 27.8%
CCc1ccnc(NS(=O)(=O)c2ccc3c(c2)CCO3)c1,–,inactive: 1.69%
CC(=O)Nc1nc2ccc(C(=O)NC3CCCCC3)cc2s1,"inconclusive: 35.5 µM [activator, single point]",–

# Additional structures:

Compound,Potency,"activity change, negative = inhibition"
O=C(N/N=C/c1cc(Br)c(O)c(Br)c1)c1cc2c(ccc3ccccc32)o1,"inconclusive: 35.5 µM [inhibitor, single point]",–
CCOC(=O)COn1c(-n2nc(C)cc2C)nc2ccccc2c1=O,active: 17.8 µM,–
CN1CCCC(OC(=O)c2ccc(C(C)(C)C)cc2)C1 (centres undefined),–,inactive: 10.4%
COc1ccc(C2(O)CCN(C(=O)NC3CCCCC3)CC2)cc1,–,inactive: 26.8%
Cc1ccc(C)c(NC(=S)NC(C)C(c2ccccc2)N2CCN(C)CC2)c1 (centres undefined),active: 12.6 µM,–
CCc1ccc(OCC(=O)NC(NC(=S)Nc2ccccc2OC)C(Cl)(Cl)Cl)cc1 (centres undefined),"inconclusive: 35.5 µM [inhibitor, single point]",–
COc1ccc(Cl)cc1NC(=O)C/C(C)=N/NC(=O)c1ccc(O)cc1,active: 8.91 µM,–
Cc1cc(F)ccc1N1CCC(N2CCN(C)C(CCO)C2)CC1 (centres undefined),–,inactive: -2.72%
C=CCc1cc(/C=C2/NC(=O)NC2=O)cc(OCC)c1O,"inconclusive: 12.6 µM [activator, single point]",–
c1csc(-c2nc3c4ccccc4c4ccccc4c3[nH]2)c1,"inconclusive: 10 µM [inhibitor, partial curve, poor fit]",–
CN1C(=O)N(C)C2=NNC=NC2(O)C1=O (centres undefined),"inconclusive: 22.4 µM [inhibitor, single point]",–
O=c1[nH]c(C(Cl)(Cl)Cl)nc2ccc3ccccc3c12,"inconclusive: 0.891 µM [inhibitor, full curve]",–
N#Cc1nc(COc2ccc(Cl)cc2)oc1N1CCCCCC1,"inconclusive: 1.26 µM [activator, full curve]",–
N#CCCN(C1CCCCC1)S(=O)(=O)c1cccc2nsnc12,"inconclusive: 15.8 µM [activator, single point]",–
O=c1cc(O)n(-c2ccccc2F)c(=S)[nH]1,–,inactive: 1.88%
COc1ccc(-c2cc(-c3ccccc3)nc(SC(C)C(=O)O)c2C#N)cc1 (centres undefined),"inconclusive: 12.6 µM [activator, partial curve]",–
COCc1c(C(=O)Nc2nc(C)cs2)oc2ccccc12,"inconclusive: 6.31 µM [activator, single point]",–
O=C1c2ccccc2C(=O)N1CCc1nn[nH]n1,"inconclusive: 12.6 µM [activator, partial curve]",–
CCOc1ccccc1Nc1ncccc1C(=O)N1CCCC1,"inconclusive: 10 µM [activator, partial curve]",–
CC1=C(C)CC(C(=O)NCC(=O)c2ccccc2)C(C(=O)O)C1 (centres undefined),"inconclusive: 12.6 µM [activator, partial curve]",–
S=c1[nH]nc(-c2ccc(Br)cc2)n1-c1ccc2c(c1)OCCO2,active: 0.398 µM,–
COC(=O)c1ccccc1NC1=C/C(=N\S(=O)(=O)c2ccc(C(=O)O)cc2)c2ccccc2C1=O,"inconclusive: 35.5 µM [inhibitor, single point]",–
Cn1nnnc1SCC(=O)c1ccc2c(c1)OCCO2,–,inactive: 39.9%
CCOC(=O)c1cc(C(=O)NC(C)c2ccccc2)c(C)[nH]c1=O (centres undefined),–,inactive: 0.392%

# Among those listed so far, 2 contain a CF3 group.
Compound,Potency,"activity change, negative = inhibition"
COc1ccc(-c2nc(NC(=O)Cn3ccc(C(F)(F)F)n3)sc2C)cc1,"inconclusive: 11.2 µM [activator, partial curve]",–
CCN1CCN(Cc2ccc(NC(=O)c3cc(NC(=O)c4cc5cccc(OC)c5o4)cc(OC)c3)cc2C(F)(F)F)CC1,"inconclusive: 20 µM [inhibitor, single point]",–
